Data as given in PubChem BioAssay AID2685 (National Center for Advancing Translational Sciences (NCATS), 2010).
The list shows a part of the results. The main result of the screen is listed elsewhere. These columns were measured beside it and carry no call. Compounds called inactive in the main read-out are mostly missing here. The note in brackets gives the kind of curve behind each potency; many fits are weak.

Experiment: qHTS Assay for Lipid Storage Modulators in Drosophila S3 Cells;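 as to cell number change: cells counted by Cell Tracker Red CMTPX staining in the red channel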
Details: BODIPY lipid droplet fluorescence, 18-24 h; for cell number change: measured here: cell count max response, cells fed with added oleic acid
Summary of the method: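 Drosophila S3 cells got compounds at several concentrations plus oleic acid (400 uM solution). Laser-scanning cytometry with 488 nm excitation read lipid droplets at 500-530 nm and cells at 575-640 nm. Percent activity was relative to 20 uM Triacsin C.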

[1] = measured here: lipid fluorescence (Fed channel) AC50, cells fed with added oleic acid
[2] = measured here: cell number channel AC50, cells fed with added oleic acid

Cc1sc2ncnc(N=Nc3c(O)[nH]c4ccccc34)c2c1C
AC50 [1]: 29100 nM [falling, partial curve, poor fit]

O=C(NC1CC2CCCC(C1)N2C(=O)NC1CCCCC1)c1ccc(F)cc1 (stereo unspecified)
cell number change: 1.73%

CC1=C(C#N)C(c2ccc3ncccc3c2)C(C#N)=C(C)N1
AC50 [1]: 580 nM [falling, single point]

O=c1[nH]c2cc(Br)cnc2nc1/C=C(\O)c1ccc(F)cc1
cell number change: 0.565%

CCC(C)c1ccc(NC(=S)NCc2ccccn2)cc1 (stereo unspecified)
cell number change: 11.7%

O=c1c2nnn(-c3cccc(F)c3)c2ncn1Cc1ccccn1
cell number change: 3.86%
AC50 [2]: 164 nM [rising, full curve, poor fit]

CCN(CC)S(=O)(=O)c1cc(C(=O)N2CCc3ccccc32)ccc1Cl
cell number change: 6.74%
AC50 [1]: 29100 nM [rising, partial curve]

COc1cccc(NC(=S)/C(=C(\[O-])c2ccc([N+](=O)[O-])cc2)[n+]2ccccc2)c1
cell number change: 28%

CCCCOc1ccc(C(=O)NCC(=O)NC2CCCCC2)cc1
cell number change: -3.63%
AC50 [1]: 29100 nM [rising, single point]

O=C(NC1CCCCC1)C(=S)NCCc1ccccc1
cell number change: 30.8%
AC50 [2]: 1640 nM [rising, partial curve, poor fit]
AC50 [1]: 6510 nM [rising, single point]

Cc1ccc(NC(=O)Cn2cnc3sc(C(=O)NCc4ccco4)c(C)c3c2=O)cc1Cl
cell number change: 47%
AC50 [2]: 29100 nM [rising, single point]
AC50 [1]: 82 nM [rising, full curve, poor fit]

CC(C)(C)CC(=O)Nc1cc(S(=O)(=O)N2CCCCCC2)ccc1Cl
cell number change: -2.72%
AC50 [2]: 103 nM [falling, full curve, poor fit]
AC50 [1]: 103 nM [rising, full curve, poor fit]

O=C(OCC(=O)N1CCN(c2ccccc2)CC1)c1ccccc1OC(F)F
cell number change: -27%
AC50 [1]: 651 nM [falling, full curve, poor fit]

Cc1c(C(=O)N(C)Cc2cccc(F)c2)oc2c(Cl)cccc12
AC50 [1]: 820 nM [rising, full curve, poor fit]

CCN(Cc1nc(-c2ccc(OC)c(OC)c2)no1)C(=O)c1ccoc1C
cell number change: 5.88%
AC50 [1]: 29100 nM [falling, single point]

CCOC(=O)c1cc2c(=O)n3ccccc3nc2n(Cc2ccccc2Cl)c1=N
cell number change: -1.43%
AC50 [1]: 116 nM [falling, full curve, poor fit]

O=C(CSc1ccccn1)Nc1ccc2c(c1)C(=O)c1ccccc1C2=O
cell number change: -69.8%
AC50 [2]: 3260 nM [falling, partial curve]
AC50 [1]: 3660 nM [falling, full curve]
